PubChem BioAssay AID1259308 – NCATS | 2017
Purpose: 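Candidate targets for better recombinant protein yield in mammalian cells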 (primary screen). Cell system: human HEK293 embryonic kidney cells stably expressing firefly luciferase (HEK-CMV-Luc2-Hygro). Reagents: single siRNA against human genes, 0.8 pmol siRNA per well. Timing: 72 h. Measurement: 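Luciferase light (ONE-Glo) measured on one replicate plate set and viability (CellTiter-Glo) on the other, scaled to a negative control siRNA, with robust z-scores and luciferase per cell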. Direction: total luciferase, z-score: higher = more reporter protein produced. Call rule: 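Active when the median/MAD z-score for overall luciferase is greater than 3; a gene was taken forward for validation with new siRNAs if at least two of its three siRNAs passed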. Meaning of the calls: active = raised luciferase; inactive = no rise.
Here is a random part of about 59,000 deposited reagents. About 1,510 of them (2.6%) count as active. 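Calls use total luciferase alone and ignore viability, so some active siRNAs may act by altering cell number.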 The numbers tell different reagents against one gene apart. Further read-outs or replicates are left out here. No sequences are given here.

{"gene": "OR1J4", "reagent": 1, "total luciferase, z-score": -1.14, "call": "inactive"}
{"gene": "OR1J4", "reagent": 2, "total luciferase, z-score": 1.89, "call": "inactive"}
{"gene": "OR1J4", "reagent": 3, "total luciferase, z-score": -0.0914, "call": "inactive"}
{"gene": "ZNF587", "reagent": 1, "total luciferase, z-score": 0.26, "call": "inactive"}
{"gene": "ZNF587", "reagent": 2, "total luciferase, z-score": 0.0252, "call": "inactive"}
{"gene": "ZNF587", "reagent": 3, "total luciferase, z-score": -0.14, "call": "inactive"}

Look-ups from the list.
For “call”, ZNF587 #2 shows inactive
Value of OR1J4 #1 in “call”: inactive

The listing continues.
{"gene": "RDH5", "reagent": 1, "total luciferase, z-score": 0.0779, "call": "inactive"}
{"gene": "RDH5", "reagent": 2, "total luciferase, z-score": 1.15, "call": "inactive"}
{"gene": "RDH5", "reagent": 3, "total luciferase, z-score": 0.572, "call": "inactive"}
{"gene": "ADAM9", "reagent": 1, "total luciferase, z-score": 2.14, "call": "inactive"}
{"gene": "ADAM9", "reagent": 2, "total luciferase, z-score": -0.77, "call": "inactive"}
{"gene": "ADAM9", "reagent": 3, "total luciferase, z-score": -1.12, "call": "inactive"}
